Experimental data taken from paper PMC12752627, “Discovery of a Potent and Selective TEAD Degrader with Durable Degradation Activity” (Advanced Science, 2025).
This continues a long series; more values of the same kind are listed elsewhere.

Tested on: 867 cancer cell lines
Test: PRISM assay (barcoded cell line screening, 5 days);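 further: top test concentration 10 mM in eight-point dilution series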
Assay type: cell-based
Parameters: scale not given here
Procedure: The principle of the PRISM assay has been described elsewhere and was conducted as previously outlined by the PRISM team at the Broad Institute.^[ [14], [31] ^] In PRISM (MTS027) experiments, KG‐FP‐003 was tested across 867 different cancer cell lines. Cells were treated with eight concentration gradients, ranging from 4.6 nM to […], in triplicate dilutions over a period of five days. Each plate was treated with 20 µM bortezomib as a positive control and DMSO as a negative control. Three replicate experiments were performed for each compound. The resulting data were analyzed using GraphPad PRISM 9.5.

CNC(=O)c1cc2c(c(F)c1-c1c(Cl)c(F)cc3c1C[C@@](CN[C@H]1CC[C@H](C(=O)N4CCC(CC5CCN(C(=O)COc6ccc(N7CCC(=O)NC7=O)c(C)c6)CC5)CC4)CC1)(c1ccccc1)O3)[C@@H](O)[C@@H](C)C2 [KG-FP-003]
KG-FP-003-AUC (ICC8_BILIARY_TRACT ACH-001848 PR300): 0.79 | KG-FP-003-AUC (ICC9_BILIARY_TRACT ACH-001849 PR300): 0.87 | KG-FP-003-AUC (ICC10_BILIARY_TRACT ACH-001834 PR300): 0.43 | KG-FP-003-AUC (ICC12_BILIARY_TRACT ACH-001838 PR300): 0.67 | KG-FP-003-AUC (ICC137_BILIARY_TRACT ACH-001839 PR300): 0.99 | KG-FP-003-AUC (IGR1_SKIN ACH-000882 PR500): 0.93 | KG-FP-003-AUC (IGR37_SKIN ACH-000650 PR500): 0.95 | KG-FP-003-AUC (IGR39_SKIN ACH-000550 PR300): 0.57 | KG-FP-003-AUC (IGROV1_OVARY ACH-000966 PR500): 0.64 | KG-FP-003-AUC (IHH4_THYROID ACH-001528 PR300): 0.98 | KG-FP-003-AUC (IM95_STOMACH ACH-000919 PR500): 0.61 | KG-FP-003-AUC (IPC298_SKIN ACH-000915 PR500): 0.93 | KG-FP-003-AUC (ISHIKAWAHERAKLIO02ER_ENDOMETRIUM ACH-000961 PR500): 0.88 | KG-FP-003-AUC (ISTMES2_PLEURA ACH-000331 PR500): 0.80 | KG-FP-003-AUC (J82_URINARY_TRACT ACH-000396 PR500): 0.72 | KG-FP-003-AUC (JAR_PLACENTA ACH-001529 PR300): 0.40 | KG-FP-003-AUC (JEG3_PLACENTA ACH-001530 PR300): 0.54 | KG-FP-003-AUC (JHH1_LIVER ACH-000620 PR500): 0.64 | KG-FP-003-AUC (JHH4_LIVER ACH-000476 PR500): 0.61 | KG-FP-003-AUC (JHH5_LIVER ACH-000734 PR500): 0.91 | KG-FP-003-AUC (JHH6_LIVER ACH-000217 PR500): 0.69 | KG-FP-003-AUC (JHH7_LIVER ACH-000848 PR500): 0.96 | KG-FP-003-AUC (JHOC5_OVARY ACH-000324 PR500): 0.72 | KG-FP-003-AUC (JHOM1_OVARY ACH-000237 PR500): 0.88 | KG-FP-003-AUC (JHOS2_OVARY ACH-000132 PR500): 0.79 | KG-FP-003-AUC (JHUEM2_ENDOMETRIUM ACH-000909 PR500): 0.98 | KG-FP-003-AUC (JHUEM7_ENDOMETRIUM ACH-000993 PR300): 0.74 | KG-FP-003-AUC (JIMT1_BREAST ACH-000711 PR500): 0.85 | KG-FP-003-AUC (JJN3_HAEMATOPOIETIC_AND_LYMPHOID_TISSUE ACH-000653 PR300): 0.82 | KG-FP-003-AUC (JL1_PLEURA ACH-000645 PR300): 0.79 | KG-FP-003-AUC (JM1_HAEMATOPOIETIC_AND_LYMPHOID_TISSUE ACH-000151 PR300): 0.71 | KG-FP-003-AUC (JMSU1_URINARY_TRACT ACH-000753 PR500): 0.69 | KG-FP-003-AUC (JMURTK2_SOFT_TISSUE ACH-001532 PR300): 0.85 | KG-FP-003-AUC (JOPACA1_PANCREAS ACH-001353 PR300): 0.84 | KG-FP-003-AUC (JR_SOFT_TISSUE ACH-001096 PR300): 0.90 | KG-FP-003-AUC (JURKAT_HAEMATOPOIETIC_AND_LYMPHOID_TISSUE ACH-000995 PR300): 0.89 | KG-FP-003-AUC (JURLMK1_HAEMATOPOIETIC_AND_LYMPHOID_TISSUE ACH-000326 PR300): 0.78 | KG-FP-003-AUC (JVM3_HAEMATOPOIETIC_AND_LYMPHOID_TISSUE ACH-000346 PR300): 0.96 | KG-FP-003-AUC (K029AX_SKIN ACH-000404 PR500): 1.00 | KG-FP-003-AUC (K562_HAEMATOPOIETIC_AND_LYMPHOID_TISSUE ACH-000551 PR300): 0.81 | KG-FP-003-AUC (KALS1_CENTRAL_NERVOUS_SYSTEM ACH-000231 PR500): 0.57 | KG-FP-003-AUC (KARPAS299_HAEMATOPOIETIC_AND_LYMPHOID_TISSUE ACH-000053 PR300): 0.85 | KG-FP-003-AUC (KARPAS620_HAEMATOPOIETIC_AND_LYMPHOID_TISSUE ACH-000193 PR300): 0.91 | KG-FP-003-AUC (KARPAS1718_HAEMATOPOIETIC_AND_LYMPHOID_TISSUE ACH-001533 PR300): 0.91 | KG-FP-003-AUC (KATOIII_STOMACH ACH-000793 PR300): 0.71 | KG-FP-003-AUC (KCL22_HAEMATOPOIETIC_AND_LYMPHOID_TISSUE ACH-000983 PR300): 0.85 | KG-FP-003-AUC (KD_SOFT_TISSUE ACH-001099 PR300): 0.42 | KG-FP-003-AUC (KE37_HAEMATOPOIETIC_AND_LYMPHOID_TISSUE ACH-000101 PR300): 0.73 | KG-FP-003-AUC (KE39_STOMACH ACH-000507 PR300): 0.91 | KG-FP-003-AUC (KE97_STOMACH ACH-000167 PR300): 0.80 | KG-FP-003-AUC (KELLY_AUTONOMIC_GANGLIA ACH-000259 PR300): 1.00 | KG-FP-003-AUC (KHM1B_HAEMATOPOIETIC_AND_LYMPHOID_TISSUE ACH-000564 PR300): 0.96 | KG-FP-003-AUC (KKU055_BILIARY_TRACT ACH-001537 PR300): 0.93 | KG-FP-003-AUC (KKU100_BILIARY_TRACT ACH-001536 PR300): 0.60 | KG-FP-003-AUC (KKU213_BILIARY_TRACT ACH-001538 PR300): 0.76 | KG-FP-003-AUC (KLE_ENDOMETRIUM ACH-000293 PR300): 0.53 | KG-FP-003-AUC (KMBC2_URINARY_TRACT ACH-000862 PR500): 0.66 | KG-FP-003-AUC (KMCH1_BILIARY_TRACT ACH-001853 PR300): 0.99 | KG-FP-003-AUC (KMH2_HAEMATOPOIETIC_AND_LYMPHOID_TISSUE ACH-000815 PR300): 0.91 | KG-FP-003-AUC (KMRC1_KIDNEY ACH-000684 PR500): 0.86 | KG-FP-003-AUC (KMRC3_KIDNEY ACH-000313 PR500): 0.87 | KG-FP-003-AUC (KMRC20_KIDNEY ACH-000250 PR500): 0.94 | KG-FP-003-AUC (KMS11_HAEMATOPOIETIC_AND_LYMPHOID_TISSUE ACH-000714 PR300): 0.90 | KG-FP-003-AUC (KMS12BM_HAEMATOPOIETIC_AND_LYMPHOID_TISSUE ACH-000380 PR300): 0.86 | KG-FP-003-AUC (KMS18_HAEMATOPOIETIC_AND_LYMPHOID_TISSUE ACH-000658 PR300): 0.91 | KG-FP-003-AUC (KMS27_HAEMATOPOIETIC_AND_LYMPHOID_TISSUE ACH-000576 PR300): 0.82 | KG-FP-003-AUC (KMS28BM_HAEMATOPOIETIC_AND_LYMPHOID_TISSUE ACH-000419 PR300): 0.87 | KG-FP-003-AUC (KNS42_CENTRAL_NERVOUS_SYSTEM ACH-000622 PR500): 0.77 | KG-FP-003-AUC (KNS60_CENTRAL_NERVOUS_SYSTEM ACH-000445 PR500): 0.84 | KG-FP-003-AUC (KNS62_LUNG ACH-000858 PR500): 0.93 | KG-FP-003-AUC (KNS81_CENTRAL_NERVOUS_SYSTEM ACH-000479 PR500): 0.66 | KG-FP-003-AUC (KON_UPPER_AERODIGESTIVE_TRACT ACH-001542 PR300): 0.90 | KG-FP-003-AUC (KOPN8_HAEMATOPOIETIC_AND_LYMPHOID_TISSUE ACH-001106 PR300): 0.98 | KG-FP-003-AUC (KOSC2CL343_UPPER_AERODIGESTIVE_TRACT ACH-001543 PR300): 0.92 | KG-FP-003-AUC (KP2_PANCREAS ACH-000281 PR500): 0.77 | KG-FP-003-AUC (KP3_PANCREAS ACH-000108 PR500): 0.83 | KG-FP-003-AUC (KP4_PANCREAS ACH-000265 PR500): 0.73 | KG-FP-003-AUC (KS1_CENTRAL_NERVOUS_SYSTEM ACH-000631 PR300): 0.62 | KG-FP-003-AUC (KU1919_URINARY_TRACT ACH-000486 PR500): 0.59 | KG-FP-003-AUC (KURAMOCHI_OVARY, PR500): 0.79 | KG-FP-003-AUC (KYM1_SOFT_TISSUE, PR300): 0.49 | KG-FP-003-AUC (KYO1_HAEMATOPOIETIC_AND_LYMPHOID_TISSUE, PR300): 0.83 | KG-FP-003-AUC (KYSE30_OESOPHAGUS, PR500): 0.64 | KG-FP-003-AUC (KYSE70_OESOPHAGUS, PR500): 1.00 | KG-FP-003-AUC (KYSE140_OESOPHAGUS, PR500): 0.95 | KG-FP-003-AUC (KYSE150_OESOPHAGUS, PR500): 0.90 | KG-FP-003-AUC (KYSE180_OESOPHAGUS, PR500): 0.88 | KG-FP-003-AUC (KYSE270_OESOPHAGUS, PR500): 0.87 | KG-FP-003-AUC (KYSE410_OESOPHAGUS, PR500): 0.71 | KG-FP-003-AUC (KYSE450_OESOPHAGUS, PR300): 0.95 | KG-FP-003-AUC (KYSE510_OESOPHAGUS, PR500): 0.86 | KG-FP-003-AUC (KYSE520_OESOPHAGUS, PR500): 0.66 | KG-FP-003-AUC (L33_PANCREAS, PR500): 0.83 | KG-FP-003-AUC (L82_HAEMATOPOIETIC_AND_LYMPHOID_TISSUE, PR300): 0.79 | KG-FP-003-AUC (LAMA84_HAEMATOPOIETIC_AND_LYMPHOID_TISSUE, PR300): 0.89
